The target of experiment [1] is rat Unc5B coupled to GFP (expressed in porcine aortic endothelial cells) (rat) (UniProt O08722). The experiment can be described thus: immunoprecipitation from PAEC cells transfected with rat Unc5B-GFP with the named antibody, western blot of the precipitate for UNC5B, GFP and Claudin5. (A western blot detects proteins with antibodies after separation by electrophoresis.)

By UniProt entry, the sequences of proteins in these tests, tags left out. Residues count along the entry.
UniProt O08722, residues 27-945: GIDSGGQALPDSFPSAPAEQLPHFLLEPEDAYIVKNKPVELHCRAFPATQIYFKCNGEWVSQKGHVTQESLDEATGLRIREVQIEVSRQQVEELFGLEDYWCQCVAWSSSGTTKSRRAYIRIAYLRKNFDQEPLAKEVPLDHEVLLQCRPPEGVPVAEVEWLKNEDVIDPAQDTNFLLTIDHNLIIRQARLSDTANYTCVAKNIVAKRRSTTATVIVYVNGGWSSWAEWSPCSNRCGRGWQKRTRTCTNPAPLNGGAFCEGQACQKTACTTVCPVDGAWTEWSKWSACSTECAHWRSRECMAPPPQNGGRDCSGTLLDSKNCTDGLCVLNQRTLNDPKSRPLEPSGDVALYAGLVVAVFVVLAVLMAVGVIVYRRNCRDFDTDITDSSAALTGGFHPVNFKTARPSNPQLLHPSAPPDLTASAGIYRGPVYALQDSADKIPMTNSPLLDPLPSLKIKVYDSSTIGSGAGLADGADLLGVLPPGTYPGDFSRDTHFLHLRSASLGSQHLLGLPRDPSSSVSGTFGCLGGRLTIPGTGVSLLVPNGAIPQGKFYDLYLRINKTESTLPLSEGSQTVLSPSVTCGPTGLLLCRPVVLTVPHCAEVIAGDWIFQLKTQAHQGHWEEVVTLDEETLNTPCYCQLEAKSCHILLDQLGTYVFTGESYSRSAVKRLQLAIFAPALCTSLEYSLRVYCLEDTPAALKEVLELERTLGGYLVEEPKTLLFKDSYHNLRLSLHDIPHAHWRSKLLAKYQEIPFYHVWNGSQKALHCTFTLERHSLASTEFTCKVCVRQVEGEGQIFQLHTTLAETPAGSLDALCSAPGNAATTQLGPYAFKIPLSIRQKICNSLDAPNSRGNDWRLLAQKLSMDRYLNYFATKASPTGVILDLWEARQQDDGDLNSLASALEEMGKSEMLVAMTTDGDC
UniProt Q8IZJ1, residues 27-945: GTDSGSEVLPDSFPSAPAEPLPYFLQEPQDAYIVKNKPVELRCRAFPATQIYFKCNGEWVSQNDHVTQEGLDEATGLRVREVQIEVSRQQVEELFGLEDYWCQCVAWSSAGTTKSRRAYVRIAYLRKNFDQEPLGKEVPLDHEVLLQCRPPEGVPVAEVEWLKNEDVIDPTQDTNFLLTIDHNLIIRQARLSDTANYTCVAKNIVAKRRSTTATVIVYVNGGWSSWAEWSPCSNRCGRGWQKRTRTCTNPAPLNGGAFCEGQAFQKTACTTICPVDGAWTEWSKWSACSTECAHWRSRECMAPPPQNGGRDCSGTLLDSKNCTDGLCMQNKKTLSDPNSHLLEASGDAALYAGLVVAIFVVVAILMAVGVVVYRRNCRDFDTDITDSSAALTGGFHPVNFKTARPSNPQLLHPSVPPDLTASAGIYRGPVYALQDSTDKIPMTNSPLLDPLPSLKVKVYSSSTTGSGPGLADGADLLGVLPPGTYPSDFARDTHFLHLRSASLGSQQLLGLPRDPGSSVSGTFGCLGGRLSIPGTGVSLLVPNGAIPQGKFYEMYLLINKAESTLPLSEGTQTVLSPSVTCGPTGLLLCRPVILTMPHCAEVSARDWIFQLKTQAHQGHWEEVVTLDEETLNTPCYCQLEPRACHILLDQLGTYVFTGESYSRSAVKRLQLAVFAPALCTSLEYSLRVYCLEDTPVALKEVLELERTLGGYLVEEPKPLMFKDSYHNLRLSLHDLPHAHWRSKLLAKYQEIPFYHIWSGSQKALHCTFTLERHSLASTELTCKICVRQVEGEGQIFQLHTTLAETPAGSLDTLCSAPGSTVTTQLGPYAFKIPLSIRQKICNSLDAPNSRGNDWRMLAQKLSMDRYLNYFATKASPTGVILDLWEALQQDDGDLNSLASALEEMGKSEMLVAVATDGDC

The target is the same in experiment [2]. Description: immunoprecipitation from PAECs transfected with rat Unc5B-GFP, 1 h after antibody treatment.
The target of the next experiment is human Unc5B (human) (UniProt Q8IZJ1). The experiment can be described thus: immunoprecipitation from HUVEC with the named antibody, western blot of the precipitate for Unc5B and Claudin5.

Where a chain is given by its changes, count along the chain named. Results are given in words; binding and its absence hold for the method and conditions named. Some results given as binding are weak or reduced against the parent protein; the word gives no strength.

B1: 1095 (antibody, human IgG2, kappa, V domains shown)
VH: EVQLVESGGGLVQPGGSLRLSCAASGFNISYSSIHWVRQAPGKGLEWVAYIYPYYGYTYYADSVKGRFTISADTSKNTAYLQMNSLRAEDTAVYYCARGYGIDYWGQGTLVTVSS
VL: DIQMTQSPSSLSASVGDRVTITCRASQSVSSAVAWYQQKPGKAPKLLIYSASSLYSGVPSRFSGSRSGTDFTLTISSLQPEDFATYYCQQHYSLFTFGQGTKVEIKR
Turning to B1, the binding entry in experiment [1] and in experiment [2] was “binds” throughout.

B2: anti-Unc5B antibody 1103 (antibody, V domains shown)
VH: B1 VH with S32Y, Y50S, P53S, Y54S, Y55S, Y59S, I102L
VL: DIQMTQSPSSLSASVGDRVTITCRASQSVSSAVAWYQQKPGKAPKLLIYSASSLYSGVPSRFSGSRSGTDFTLTISSLQPEDFATYYCQQHYSYPITFGQGTKVEIKR
notes: also called anti-Unc5B-3
Regarding B2, in the experiment with human Unc5B (human), the binding result is recorded as “binds”.

B3: 1100 (antibody, V domains shown)
VH: B1 VH with I29L, S30Y, Y50S, P53S, Y55S, G56S, Y59S, G101A, I102M
VL: B1 VL with S93G, F95I
Consider B3, for which the binding result in the experiment with human Unc5B (human) is on record as “binds”.

The record behind these values is US20240294636A1 (YALE UNIVERSITY, published 2024).
